These are yes or no findings as the source states them, for the method shown. In cells and extracts the contact can be indirect. Some binding calls cover weakened binding; strength is not graded here.

Sequences of proteins named here, by UniProt entry; tags and fusion partners are left off.
UniProt Q01518: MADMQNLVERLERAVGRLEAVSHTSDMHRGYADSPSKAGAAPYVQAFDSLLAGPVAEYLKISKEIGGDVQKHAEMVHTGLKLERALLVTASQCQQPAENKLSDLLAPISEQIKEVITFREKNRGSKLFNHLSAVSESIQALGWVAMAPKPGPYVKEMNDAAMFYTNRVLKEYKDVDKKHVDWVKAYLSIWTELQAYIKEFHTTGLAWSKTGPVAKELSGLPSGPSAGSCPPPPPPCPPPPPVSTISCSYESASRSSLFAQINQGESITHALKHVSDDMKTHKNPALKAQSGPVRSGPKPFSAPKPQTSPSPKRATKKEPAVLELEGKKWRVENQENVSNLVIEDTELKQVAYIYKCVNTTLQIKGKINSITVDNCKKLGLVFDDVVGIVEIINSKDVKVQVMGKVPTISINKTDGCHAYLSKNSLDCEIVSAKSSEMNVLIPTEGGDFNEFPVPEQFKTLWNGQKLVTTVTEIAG
UniProt Q9Y281: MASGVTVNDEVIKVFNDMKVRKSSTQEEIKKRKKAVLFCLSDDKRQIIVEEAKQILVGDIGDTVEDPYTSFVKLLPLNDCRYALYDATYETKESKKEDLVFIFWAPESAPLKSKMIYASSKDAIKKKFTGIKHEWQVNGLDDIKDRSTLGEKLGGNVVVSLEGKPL
UniProt P23528: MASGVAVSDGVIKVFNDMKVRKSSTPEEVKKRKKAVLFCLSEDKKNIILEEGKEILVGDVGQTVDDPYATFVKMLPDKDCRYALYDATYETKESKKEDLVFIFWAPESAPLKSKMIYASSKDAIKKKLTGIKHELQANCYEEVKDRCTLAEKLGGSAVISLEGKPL

This test addresses cyclase-associated protein 1 (native CAP1 in Hs 578T cells) (human (endogenous in Hs 578T)) (UniProt Q01518). Briefly: proximity ligation; Duolink in situ PLA on fixed and permeabilised Hs 578T cells with anti-CAP1 and anti-CFL1 or anti-CFL2 primary antibodies; single primary antibody as negative control; proximity <40 nm.

In the case of “cofilin 2 (native CFL2 in Hs 578T cells) (from UniProt Q9Y281 1-166)”, the binding result is recorded as “binds”. Turning to “non-muscle cofilin 1 (native CFL1 in Hs 578T cells) (from UniProt P23528 1-166)”, the binding entry is listed as “binds”.
